In patent US20220002384A1 one finds binding data, which are given here for 8 molecules.

The chains behind the UniProt entries cited, without tags or fusion partners. Where a name states a change or a piece, a line headed by the entry shows the natural chain unless it says otherwise. Residues count along the entry.
UniProt P30530, residues 26-894: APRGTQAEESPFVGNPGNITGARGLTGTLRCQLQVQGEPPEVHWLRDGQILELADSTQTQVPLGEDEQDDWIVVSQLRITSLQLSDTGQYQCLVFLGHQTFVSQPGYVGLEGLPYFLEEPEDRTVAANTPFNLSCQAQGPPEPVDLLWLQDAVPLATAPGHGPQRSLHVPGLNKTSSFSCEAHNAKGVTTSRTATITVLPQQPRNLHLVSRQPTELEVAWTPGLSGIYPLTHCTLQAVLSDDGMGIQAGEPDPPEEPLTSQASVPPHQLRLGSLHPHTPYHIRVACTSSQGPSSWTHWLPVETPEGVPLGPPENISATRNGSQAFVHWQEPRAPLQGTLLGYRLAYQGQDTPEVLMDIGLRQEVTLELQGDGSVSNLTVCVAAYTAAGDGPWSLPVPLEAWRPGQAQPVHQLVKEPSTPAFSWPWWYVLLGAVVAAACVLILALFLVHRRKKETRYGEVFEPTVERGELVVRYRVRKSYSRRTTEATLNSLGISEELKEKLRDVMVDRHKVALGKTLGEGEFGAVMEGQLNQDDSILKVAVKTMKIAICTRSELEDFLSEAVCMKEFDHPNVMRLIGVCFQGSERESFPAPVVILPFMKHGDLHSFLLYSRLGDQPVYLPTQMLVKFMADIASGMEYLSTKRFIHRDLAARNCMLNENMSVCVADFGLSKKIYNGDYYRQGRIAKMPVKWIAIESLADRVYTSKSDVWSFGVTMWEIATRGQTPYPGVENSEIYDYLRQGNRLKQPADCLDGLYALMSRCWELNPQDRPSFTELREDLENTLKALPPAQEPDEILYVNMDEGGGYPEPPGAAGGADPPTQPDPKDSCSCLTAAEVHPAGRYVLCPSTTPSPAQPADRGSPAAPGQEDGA
UniProt Q02223, residues 1-54: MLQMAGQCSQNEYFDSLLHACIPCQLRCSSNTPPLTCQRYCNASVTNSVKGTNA

Substitutions are numbered along the chain they refer to. Results are given in words; binding and its absence hold for the method and conditions named. Some binding calls cover weakened binding; strength is not graded here. For some assays here: Sequences can lack the tags named with a protein.

Experiment [1] deals with AXL receptor on MDA-MB-231 cells (UniProt P30530). Description: titration 1:4 from 500 nM on MDA-MB-231 and MDA-MB-231 KO cell lines.
Experiment [2] shares this target. Description: FACS on MDA-MB-231 cells against AXL KO MDA-MB-231 cells.
For experiment [3], the target named is BCMA-Fc Chimera (R&D Systems) (UniProt Q02223). Description: phage and yeast display selection on BCMA-Fc; Octet BLI on BCMA-Fc on Protein A tips (values not given).

B1: AXL #56-CD3 FN3 domain-scFv fusion (protein)
chain: NVSPPRRARVTDATETTITISWRVSPSTVVGLQVDAVPANGQTPIQRTIKPDVRSYTITGLQPGTDYKIYLYTLNVIGGSAHASSPVVIDASTGGGGSELVVTQEPSLTVSPGGTVTLTCRSSTGAVTTSNYANWVQQKPGQAPRGLIGGTNKRAPGTPARFSGSLLGGKAALTLSGVQPEDEAEYYCALWYSNLWVFGGGTKLTVLGGGGSGGGGSGGGGSEVQLLESGGGLVQPGGSLKLSCAASGFTFNTYAMNWVRQAPGKGLEWVARIRSKYNNYATYYADSVKDRFTISRDDSKNTAYLQMNNLKTEDTAVYYCVRHGNFGNSYVSWFAYWGQGTLVTVSSHHHHHH
On to B1, for which the binding entry in experiment [1] is “binds”.

B2: AXL #56 (designed binder)
chain: NVSPPRRARVTDATETTITISWRVSPSTVVGLQVDAVPANGQTPIQRTIKPDVRSYTITGLQPGTDYKIYLYTLNVIGGSAHASSPVVIDAST
For the molecule B2, in experiment [2], the binding result is reported as “binds”.

B3: AXL #44-CD3 FN3 domain-scFv fusion (protein)
chain: NVSPPRRARVTDATETTITIRWEGRGVIGFQVDAVPANGQTPIQRTIKPDVRSYTITGLQPGTDYKIYLYTLPNIGTGHFSSSPVVIDASTGGGGSELVVTQEPSLTVSPGGTVTLTCRSSTGAVTTSNYANWVQQKPGQAPRGLIGGTNKRAPGTPARFSGSLLGGKAALTLSGVQPEDEAEYYCALWYSNLWVFGGGTKLTVLGGGGSGGGGSGGGGSEVQLLESGGGLVQPGGSLKLSCAASGFTFNTYAMNWVRQAPGKGLEWVARIRSKYNNYATYYADSVKDRFTISRDDSKNTAYLQMNNLKTEDTAVYYCVRHGNFGNSYVSWFAYWGQGTLVTVSSHHHHHH
On to B3, for which, in experiment [1], the binding entry was “binds”.

B4: AXL #54-CD3 FN3 domain-scFv fusion (protein)
chain: B3 chain with N74D, I75F, T77R, S81T
For the molecule B4, in experiment [1], the binding result is recorded as “binds”.

B5: exemplary BCMA-binding FN3 domain (designed binder)
chain: NVSPPRRARVTDATETTITIPWALAGSPVVRFQVDAVPANGQTPIQRTIQPSKRGYTITGLQPGTDYKIYLYTLNGPVVIDAST
As to B5, in experiment [3], the binding entry is listed as “binds”.

B6: AXL #44 (designed binder)
chain: NVSPPRRARVTDATETTITIRWEGRGVIGFQVDAVPANGQTPIQRTIKPDVRSYTITGLQPGTDYKIYLYTLPNIGTGHFSSSPVVIDAST
In the case of B6, the binding entry in experiment [2] is recorded as “binds”.

B7: AXL #54 (designed binder)
chain: B6 chain with N74D, I75F, T77R, S81T
For B7, the binding entry in experiment [2] is recorded as “binds”.

B8: AXL #53 (designed binder)
chain: NVSPPRRARVTDATETTITISWEGSPSTFIGFQVDAVPANGQTPIQRTIKPDVRSYTITGLQPGTDYKIYLYTLPDFGRGHFTSSPVVIDAST
As for B8, the binding result in experiment [2] was “binds”.
